Test results taken from US8710017B2, “Human and mouse targeting peptides identified by phage display” (priority 2000, dated 2014).
Some of these results come from one statement about several compounds together.

Sequences of proteins named here, by UniProt entry; tags and fusion partners are left off.
UniProt Q07075, whole entry: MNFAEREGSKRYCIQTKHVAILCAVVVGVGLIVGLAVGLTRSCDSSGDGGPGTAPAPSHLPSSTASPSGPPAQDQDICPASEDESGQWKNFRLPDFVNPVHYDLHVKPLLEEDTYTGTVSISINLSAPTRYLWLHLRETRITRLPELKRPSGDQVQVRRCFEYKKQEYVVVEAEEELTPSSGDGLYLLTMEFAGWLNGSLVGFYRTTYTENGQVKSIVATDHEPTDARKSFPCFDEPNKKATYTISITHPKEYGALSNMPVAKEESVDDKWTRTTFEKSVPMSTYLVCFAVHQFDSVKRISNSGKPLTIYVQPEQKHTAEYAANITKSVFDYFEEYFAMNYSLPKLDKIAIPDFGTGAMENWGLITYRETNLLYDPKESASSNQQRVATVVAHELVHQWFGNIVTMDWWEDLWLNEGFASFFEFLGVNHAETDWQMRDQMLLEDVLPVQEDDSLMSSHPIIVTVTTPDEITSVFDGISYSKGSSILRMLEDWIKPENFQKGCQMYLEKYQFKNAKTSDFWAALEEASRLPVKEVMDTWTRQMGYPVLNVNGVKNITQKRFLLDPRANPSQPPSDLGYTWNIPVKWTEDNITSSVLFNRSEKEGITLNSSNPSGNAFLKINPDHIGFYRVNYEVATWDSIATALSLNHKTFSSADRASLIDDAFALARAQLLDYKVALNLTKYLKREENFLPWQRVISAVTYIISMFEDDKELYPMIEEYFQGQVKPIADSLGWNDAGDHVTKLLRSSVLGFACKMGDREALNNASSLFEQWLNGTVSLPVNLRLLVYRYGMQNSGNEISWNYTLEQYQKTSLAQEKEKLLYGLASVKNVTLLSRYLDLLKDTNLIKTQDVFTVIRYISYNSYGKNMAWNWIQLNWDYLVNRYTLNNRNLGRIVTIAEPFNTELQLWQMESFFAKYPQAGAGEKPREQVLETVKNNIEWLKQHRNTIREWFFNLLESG

Target: T1, immunocaptured APA (Homo sapiens, UniProt Q07075)
T1 construct: The renal carcinoma cell line SK-RC-49 was transfected with an expression vector encoding full-length APA cDNA; expressed in transfected cells; host or cells: SK-RC-49/APA cell lysate (N-octyl-β-glucopyranoside), captured on mAb RC38
Experiment: Phage binding on RC38-immunocaptured APA
Details: RC38-coated microwells, not shown

Sequence: CLGQCASICVNDC
- enrichment of phage binding on immunocaptured APA compared to lysates from SK-RC-49 parental cells: 10- to 12 fold

Sequence: CPKVCPRECESNC
- enrichment of phage binding on immunocaptured APA compared to lysates from SK-RC-49 parental cells: 10- to 12 fold

Sequence: CYNLCIRECESICGADGACWTWCADGCSRSC
- enrichment of phage binding on immunocaptured APA compared to lysates from SK-RC-49 parental cells: 10- to 12 fold
